No constants are given. Whether binding was seen depends on the method and setting. In cells and extracts the contact can be indirect. A result given as binding can be weak or reduced; the word gives no strength.

This experiment addresses T1, IKKβ (UniProt O14920).
T1 sequence: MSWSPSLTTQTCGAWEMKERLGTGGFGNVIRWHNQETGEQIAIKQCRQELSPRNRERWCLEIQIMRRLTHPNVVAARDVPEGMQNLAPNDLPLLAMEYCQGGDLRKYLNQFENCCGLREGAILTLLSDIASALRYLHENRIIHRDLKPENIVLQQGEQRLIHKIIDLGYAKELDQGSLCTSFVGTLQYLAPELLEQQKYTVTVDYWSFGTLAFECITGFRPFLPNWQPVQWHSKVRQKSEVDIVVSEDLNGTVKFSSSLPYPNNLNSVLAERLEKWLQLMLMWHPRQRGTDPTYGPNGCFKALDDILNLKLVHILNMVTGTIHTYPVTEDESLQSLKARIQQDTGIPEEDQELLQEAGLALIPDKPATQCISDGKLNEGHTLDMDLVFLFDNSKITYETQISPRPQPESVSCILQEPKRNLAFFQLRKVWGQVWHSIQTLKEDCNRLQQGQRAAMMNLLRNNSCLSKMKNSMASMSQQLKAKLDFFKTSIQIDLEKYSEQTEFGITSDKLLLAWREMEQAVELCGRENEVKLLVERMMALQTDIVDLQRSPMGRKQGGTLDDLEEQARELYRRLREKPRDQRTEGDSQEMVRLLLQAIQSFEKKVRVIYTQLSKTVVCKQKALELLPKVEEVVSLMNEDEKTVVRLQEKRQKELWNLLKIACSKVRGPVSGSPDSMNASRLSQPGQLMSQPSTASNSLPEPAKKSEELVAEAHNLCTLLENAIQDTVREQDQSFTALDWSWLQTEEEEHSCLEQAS
The experiment is described as follows: co-IP.
On to “EV71 2C 126-263aa (Enterovirus 71) (domain or fragment)”, for which the binding result is reported as “no binding”.

Regarding “EV71 2C 105-121aa (Enterovirus 71) (domain or fragment)”, the binding result is reported as “binds”.

On to “enterovirus 68 2C 105-125aa (domain or fragment)”, for which the binding entry is on record as “binds”.

For the substance “EV71 2C 105-125aa (Enterovirus 71) (domain or fragment)”, the binding entry is reported as “binds”.

Take “EV71 2C 1-104aa (Enterovirus 71) (domain or fragment)”: the binding result is recorded as “binds”.

These data come from PMC4585786.
